Results are given in words; binding and its absence hold for the method and conditions named. Some entries that bind do so weakly or less than the wild type.
Molecular target: Chi1 (UniProt B6A876)
Assay: cryo-EM structure; […], Tris buffer pH 7.5); […]

Sequences of proteins named here, by UniProt entry; tags and fusion partners are left off.
UniProt B6A876: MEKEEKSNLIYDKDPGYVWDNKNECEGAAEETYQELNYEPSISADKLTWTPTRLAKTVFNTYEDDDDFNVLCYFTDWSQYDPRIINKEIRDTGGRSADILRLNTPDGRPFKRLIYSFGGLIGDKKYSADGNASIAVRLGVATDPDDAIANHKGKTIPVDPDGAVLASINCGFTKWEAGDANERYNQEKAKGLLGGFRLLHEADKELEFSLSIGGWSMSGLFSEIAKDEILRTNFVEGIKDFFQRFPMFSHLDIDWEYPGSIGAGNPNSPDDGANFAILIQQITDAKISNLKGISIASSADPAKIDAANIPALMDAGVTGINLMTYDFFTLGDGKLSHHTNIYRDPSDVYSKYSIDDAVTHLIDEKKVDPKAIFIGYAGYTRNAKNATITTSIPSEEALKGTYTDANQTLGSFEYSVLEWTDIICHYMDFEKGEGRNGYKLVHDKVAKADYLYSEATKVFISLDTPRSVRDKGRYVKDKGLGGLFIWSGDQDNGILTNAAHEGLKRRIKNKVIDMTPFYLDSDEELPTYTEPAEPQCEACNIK
UniProt B6A879: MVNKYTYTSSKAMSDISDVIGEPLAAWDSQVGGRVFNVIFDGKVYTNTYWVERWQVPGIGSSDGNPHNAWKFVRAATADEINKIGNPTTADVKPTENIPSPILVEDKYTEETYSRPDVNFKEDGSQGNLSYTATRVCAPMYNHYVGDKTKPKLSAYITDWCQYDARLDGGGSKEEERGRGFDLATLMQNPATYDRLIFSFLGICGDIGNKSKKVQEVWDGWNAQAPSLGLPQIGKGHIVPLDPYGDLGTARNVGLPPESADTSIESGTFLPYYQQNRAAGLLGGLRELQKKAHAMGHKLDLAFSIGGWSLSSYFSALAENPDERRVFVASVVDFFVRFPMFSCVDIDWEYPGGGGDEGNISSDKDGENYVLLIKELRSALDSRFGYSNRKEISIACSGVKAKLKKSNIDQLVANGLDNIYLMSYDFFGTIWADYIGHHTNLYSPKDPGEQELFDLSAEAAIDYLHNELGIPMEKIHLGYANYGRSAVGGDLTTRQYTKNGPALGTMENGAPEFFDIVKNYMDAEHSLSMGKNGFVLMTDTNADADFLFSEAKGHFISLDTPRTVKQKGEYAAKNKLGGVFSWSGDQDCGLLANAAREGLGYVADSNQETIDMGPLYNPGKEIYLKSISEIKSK

Chi2 (from UniProt B6A879 1-633) (enzyme)
binding: binds

Reference: publication PMC10847046
